In PubChem BioAssay AID504834 (National Center for Advancing Translational Sciences (NCATS), 2011):
Among all 320,000 compounds or so, about 22,000 (6.9%) were called active. Inconclusive means that the source gave no clear call. Such entries were picked first, then a sample of the others. Calls come from the whole dose curve; as a rule, active = well fitted inhibition curve with a large enough effect; inconclusive = small, poorly fitted or top-dose-only effect, or another doubt; inactive = no such curve, though single readings can be large or run the other way. Where the call is inconclusive, the potency comes from a doubtful curve fit.

test: Primary qHTS for delayed death inhibitors of the malarial parasite plastid, 96 hour incubation; settings: P. falciparum luciferase reporter growth; series mostly up to 28.7 µM; activity change, negative = inhibition: at the top concentration
Summary of the method: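 Parasite growth measured via integrated firefly luciferase reporter in P. falciparum. Infected erythrocytes at 2% hematocrit, 0.05% parasitemia final were treated 96 hours at 37 C under 5% CO2, and luminescence was read.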
% is set by controls: 0 for no effect and ±100 for the full control effect; potency is the fitted concentration of half-maximal effect.

SMILES	Potency	activity change, negative = inhibition
C=CCSc1nnc(CNC(=O)c2ccccc2C)n1C(C)C	inconclusive: 8.28 µM [inhibitor, partial curve, poor fit]	
COC(=O)CN(c1cccc(C)c1)S(=O)(=O)c1ccccc1	inconclusive: 18.5 µM [inhibitor, single point]	
Cc1noc(C)c1S(=O)(=O)Nc1ccc(C(C)C)cc1	inconclusive: 11.7 µM [inhibitor, single point]	
Cc1nc2c(-c3ccc(F)cc3)c(C)nn2c(C)c1CCC(=O)Nc1ccccc1	inconclusive: 18.5 µM [inhibitor, single point]	
CCC(C)NC(=O)C1CC(c2cccc(OC)c2)=NO1 (centres undefined)	active: 10.4 µM	
S=C(Nc1ccccc1)N1CCn2c1nc1ccccc12	active: 2.62 µM	
COc1ccc(/C=N/n2c(C)nnc2C)c(OC)c1OC		inactive: 36.3%
CCOC(=O)N1CCN(Cc2nc3c(c(=O)n(C)c(=O)n3C)n2Cc2cccc(C)c2)CC1	inconclusive: 9.28 µM [inhibitor, single point]	
Cc1nc2ccccc2c(=O)n1/N=C/c1ccc(O)cc1		inactive: 52.5%
O=C(CSc1nc2c(sc3ccccc32)c(=O)n1CCCN1CCCC1)NCC1CCCO1 (centres undefined)	inconclusive: 13.1 µM [inhibitor, single point]	
CCNc1nc(NCC)nc(N(C)/N=C/c2ccco2)n1	active: 1.47 µM	
COc1ccccc1NC(=O)c1ccc[n+]([O-])c1	inconclusive: 7.38 µM [inhibitor, partial curve, poor fit]	
CCc1ccccc1NC(=S)Nc1cc(OC)c(NC(=O)C(C)C)cc1OC	inconclusive: 18.5 µM [inhibitor, single point]	
O=C(COc1ccc(Cl)cc1)N1CCCCCCC1	inconclusive: 4.15 µM [inhibitor, single point]	
O=C(NCCOc1ccccc1Cl)C(=O)NCCOc1ccccc1Cl	active: 2.94 µM	
CCOc1cc(/C=N/Nc2nc(Nc3ccccc3)nc(N3CCCCC3)n2)ccc1OCC(=O)O		inactive: 21.1%
Cc1onc(-c2ccccc2)c1C(=O)NCCc1ccc(Cl)cc1	inconclusive: 1.65 µM [inhibitor, partial curve, poor fit]	
NC(=O)C(=O)N/N=C/c1c2ccccc2cc2ccccc12	inconclusive: 16.9 µM [inhibitor, single point]	
COc1ccc(-c2nc3cnccn3c2NCc2ccccc2)cc1SC1CCCCC1	active: 13.1 µM	
CC(=O)Nc1ccc(N/C(N)=N/c2nc(C)cc(C)n2)cc1	inconclusive: 6.57 µM [inhibitor, partial curve]	
Cc1cnn(-c2nc(-c3cccs3)cc(C(F)(F)F)n2)c1	inconclusive: 1.04 µM [inhibitor, full curve, poor fit]	
Cc1ccc(C)c(NC(=O)CSc2ccc(-c3cccs3)nn2)c1	inconclusive: 10.4 µM [inhibitor, single point]	
Cc1ccc(N2CC(C(=O)Nc3nnc(SCC(N)=O)s3)CC2=O)cc1 (centres undefined)		inactive: -2.65%

SMILES	Potency	activity change, negative = inhibition
CC(=O)Nc1c(O)c2ccccc2[nH]c1=O	inconclusive: 18.5 µM [inhibitor, single point]	
Cc1cc(C)c(S(=O)(=O)N2CCN(C(=O)c3cc(=O)[nH]c4ccccc34)CC2)c(C)c1	inconclusive: 16.5 µM [inhibitor, partial curve, poor fit]	
CCCn1c(=O)c2ccccc2n2c(SCC(=O)c3ccccc3)nnc12	inconclusive: 0.147 µM [inhibitor, full curve, poor fit]	
CCCn1c(SCC(=O)NC(C)C)nc2sc3c(c2c1=O)CCC3	inconclusive: 7.38 µM [inhibitor, partial curve, poor fit]	
O=C(CCCCn1c(=O)c2ccccc2n(CC(=O)Nc2cccc(F)c2)c1=O)NCc1ccco1	inconclusive: 18.5 µM [inhibitor, single point]	
CCOC(=O)N1CCN(C(=O)CSc2nnc(CNC(=O)c3c(F)cccc3Cl)o2)CC1	active: 11.7 µM	
COc1cc2c(cc1OC)C(C(=O)O)C(c1ccc(C)o1)N(C)C2=O (centres undefined)	active: 13.1 µM	
Cc1ccc(NC(=O)c2ccc(S(=O)(=O)NCC3CCCO3)cc2)cc1 (centres undefined)		inactive: -23.5%
O=C(CCCn1c(=O)c2ccccc2n(CC(=O)N2CCN(c3ccccc3)CC2)c1=O)NCc1ccco1		inactive: -20.5%
C=CCn1c(SCC(=O)N2CCOCC2)nnc1C(C)NC(=O)c1ccccc1 (centres undefined)	inconclusive: 11.7 µM [inhibitor, partial curve, poor fit]	
O=C(CNC(=O)c1ccc(Cl)cc1)NC(CO)c1ccccc1 (centres undefined)		inactive: 9.41%
CCc1ccc(-c2cc3c(=O)n(CC(=O)NCCCN4CCC(Cc5ccccc5)CC4)nc(C)n3n2)cc1	inconclusive: 11.7 µM [inhibitor, single point]	
COc1ccccc1C(=O)Nc1cccnc1		inactive: -15%
Cc1ccc(C)c(S(=O)(=O)Nc2cc3c4c(c2)CCN4C(=O)CC3)c1	inconclusive: 7.38 µM [inhibitor, partial curve]	
CCOc1ccc(NC(=S)N(CCOC)C(C)c2cccnc2)cc1 (centres undefined)		inactive: 51.3%
CCOc1ncccc1C(=O)OCC(=O)Nc1cc(C(=O)OC)ccc1C(=O)OC	inconclusive: 5.86 µM [inhibitor, partial curve]	
COc1cccc(CN(C(=O)COc2ccccc2[N+](=O)[O-])C2CCS(=O)(=O)C2)c1 (centres undefined)	inconclusive: 10.4 µM [inhibitor, partial curve]	
COc1ccc(C(C(=O)NCC2CCCO2)N(C(=O)Cn2nnc3ccccc32)c2ccc(NC(C)=O)cc2)cc1OC (centres undefined)	inconclusive: 14.7 µM [inhibitor, partial curve, poor fit]	
CCCN1C2CCCC1CC(NC(=O)c1cccc(OC)c1)C2 (centres undefined)		inactive: 1.92%
O=c1c(-c2ccc(Br)cc2)[n+]([O-])c2ccccc2n1OCc1ccccc1		inactive: 9.53%
C=CCC1(NCc2ccco2)CCN(CC)CC1	inconclusive: 18.5 µM [inhibitor, single point]	
Cc1noc(C)c1S(=O)(=O)N1CCC(C(=O)NCCCN2CC(C)CC(C)C2)CC1 (centres undefined)	inconclusive: 4.15 µM [inhibitor, single point]	

SMILES	Potency	activity change, negative = inhibition
CCN(C(C)=O)N(CC)c1nc(Cl)nc(NC(C)C)n1	inconclusive: 18.5 µM [inhibitor, single point]	
O=C(O)CCc1nc2cc(C(F)(F)F)ccc2n(Cc2ccccc2)c1=O		inactive: -12.7%
NC(=O)CCCc1nc(-c2ccccc2Cl)no1	inconclusive: 0.0033 µM [inhibitor, full curve, poor fit]	
COc1ccccc1C(=O)NCCC(=O)N(C)Cc1cccnc1	inconclusive: 10.4 µM [inhibitor, single point]	
CCOC(=O)N1CCc2c(sc(NC(=O)Cc3ccccc3)c2C(=O)c2ccc(OC)cc2)C1	inconclusive: 1.65 µM [inhibitor, full curve, poor fit]	
COc1ccc(C2CC(c3cccs3)=NN2C(=O)CCl)cc1OC (centres undefined)	inconclusive: 1.04 µM [inhibitor, partial curve, poor fit]	
Cc1cc(CN(C)Cc2c(C(=O)N3CCCCCCC3)nc3ccc(Cl)cn23)n[nH]1	inconclusive: 10.4 µM [inhibitor, single point]	
CSc1ccccc1NC(=O)CSCc1ccc(C)cc1	inconclusive: 0.131 µM [inhibitor, full curve, poor fit]	
Cc1cccc(NC(=S)NCCCN2CCOCC2)c1		inactive: -1.59%
CC(C)Oc1ccc(C(=O)NC(Cc2c[nH]c3ccccc23)C(=O)NN)cc1 (centres undefined)		inactive: 22.3%
CC(=O)c1ccc(N2CCN(C(=O)COc3ccccc3F)CC2)c(F)c1	inconclusive: 11.7 µM [inhibitor, partial curve, poor fit]	
Cc1cc(/C=C(\C#N)C(=O)NC2CCCCCC2)c(C)n1C		inactive: 4.34%
CC(=O)c1ccc(NC(=O)CCCCCn2nnc3ccccc3c2=O)cc1	inconclusive: 0.165 µM [inhibitor, full curve]	
CCCCN(C(=O)C1CCN(C(=O)c2ccccc2C)CC1)c1c(N)n(CCC)c(=O)[nH]c1=O	inconclusive: 0.0026 µM [inhibitor, full curve, poor fit]	
CCOc1ccc2c(c1)c(N=Nc1cccc(C(=O)O)c1)c(O)n2C	inconclusive: 4.65 µM [inhibitor, partial curve, poor fit]	
Cc1csc(SCCN2C(=O)c3ccccc3C2=O)n1	inconclusive: 13.1 µM [inhibitor, partial curve]	
Clc1ccc(Cl)c(-c2nc(-c3ccncc3)no2)c1	inconclusive: 4.15 µM [inhibitor, single point]	
CCN1CCN(S(=O)(=O)c2ccc(Cl)c(C(=O)N(C)Cc3ccc(Cl)cc3Cl)c2)CC1		inactive: 3.6%
COC(=O)Cn1c(CN(Cc2ccccc2)Cc2ccccc2)nc2c1c(=O)[nH]c(=O)n2C	inconclusive: 0.0657 µM [inhibitor, full curve, poor fit]	
O=C(Nc1n[nH]c(=S)s1)c1ccco1		inactive: 79.4%
O=C(CSc1nnnn1C1CC2C=CC1C2)Nc1ccc(C(=O)O)cc1 (centres undefined)	inconclusive: 1.47 µM [inhibitor, partial curve]	
S=C(NC1CCCCC1)N1CCN(Cc2ccccc2Cl)CC1	inconclusive: 9.28 µM [inhibitor, partial curve, poor fit]	
CC(=O)c1ccc(-c2ccc(C(=O)NC3CC(C)(C)NC(C)(C)C3)o2)cc1	inconclusive: 16.5 µM [inhibitor, single point]	

Of the compounds above, these contain a CF3 group.
SMILES	Potency	activity change, negative = inhibition
Cc1cnn(-c2nc(-c3cccs3)cc(C(F)(F)F)n2)c1	inconclusive: 1.04 µM [inhibitor, full curve, poor fit]	
O=C(O)CCc1nc2cc(C(F)(F)F)ccc2n(Cc2ccccc2)c1=O		inactive: -12.7%

Another view of some results above.
SMILES | Potency | activity change, negative = inhibition
Cc1noc(C)c1S(=O)(=O)N1CCC(C(=O)NCCCN2CC(C)CC(C)C2)CC1 (centres undefined) | inconclusive: 4.15 µM [inhibitor, single point] | 
CCN(C(C)=O)N(CC)c1nc(Cl)nc(NC(C)C)n1 | inconclusive: 18.5 µM [inhibitor, single point] | 
